Data from PubChem BioAssay AID540256 (National Center for Advancing Translational Sciences (NCATS), 2011).
Out of some 300,000 compounds screened, about 3,700 (1.2%) were called active. Inconclusive results, whose numbers are uncertain, are shown with a selection of clear calls. Calls follow the shape of the full dose curve; tested in HEK293 cells. Potencies beside an inconclusive call are fits to weak or partial responses and may not hold up.

Assay: qHTS for Inhibitors of binding or entry into cells for Lassa Virus; also: nearly all actives have a fitted effect of over 50% in size
Settings: Lassa virus pseudotype entry inhibition, cell reporter; activity change, negative = inhibition: at 37.9 µM (top of the series) unless noted
% is scaled to controls: 0 for no effect and ±100 for the full control effect; potency is read from the fitted curve at half-maximal effect.

| Structure (SMILES) | Potency | activity change, negative = inhibition |
| --- | --- | --- |
| O=S(=O)(NCc1ccccc1)c1ccc(S(=O)(=O)N(Cc2ccccn2)C2CCCC2)cc1 | inconclusive: 29.1 µM [inhibitor, single point] | – |
| O=C(NC1CCCCC1)c1ccc(S(=O)(=O)N2CCOCC2)cc1 | inconclusive: 16.4 µM [inhibitor, partial curve, poor fit] | – |
| CN(Cc1cccc(Cl)c1)C(=O)C1CCN(C(=O)Nc2ccccc2)CC1 | inconclusive: 35.5 µM [inhibitor, single point] | – |
| CCn1c2c(c(=O)n3ncc(C(=O)Nc4cc(Cl)ccc4C)c13)CN(Cc1ccc(OC)cc1)CC2 | – | inactive: 29.7% [at 46.1 µM] |
| CC12COC3(P(=O)(c4ccccc4)c4ccccc4)CC1CCC23CP(=O)(c1ccccc1)c1ccccc1 (configuration not stated) | inconclusive: 8.91 µM [inhibitor, partial curve, poor fit] | – |
| CC(=O)c1cccc(NC(=O)C(OC(=O)c2cccs2)c2ccccc2)c1 (configuration not stated) | – | inactive: 29.6% |
| Cc1ccc(C)c(S(=O)(=O)N2CCN(CC(=O)Nc3ccc4c(c3)CCC4)CC2)c1 | inconclusive: 6.31 µM [inhibitor, partial curve, poor fit] | – |
| CCN(CC)S(=O)(=O)c1cccc(C(=O)N/N=C(\C)c2cccs2)c1 | inconclusive: 22.4 µM [inhibitor, single point] | – |
| OCCN1CCN(c2nc(-c3ccccc3O)nc3ccccc23)CC1 | inconclusive: 35.5 µM [inhibitor, single point] | – |
| COc1ccccc1CCC(=O)N(Cc1ccccc1)c1c(N)n(Cc2ccccc2)c(=O)[nH]c1=O | inconclusive: 6.31 µM [inhibitor, full curve] | – |
| O=C(NCCCN1CCOCC1)C(c1ccccc1)c1ccccc1 | inconclusive: 0.891 µM [inhibitor, partial curve, poor fit] | – |
| CC(=O)c1c(N2CCN(Cc3ccccc3)CC2)nc(=S)n(Cc2ccccc2)c1C | inconclusive: 7.08 µM [inhibitor, full curve, poor fit] | – |
| CN1CCc2c(sc3c2C(=O)NC(c2ccccc2)N3)C1 (configuration not stated) | inconclusive: 35.5 µM [activator, single point] | – |
| O=C(CCCN1C(=O)/C(=C/c2ccccc2Cl)SC1=S)NNC(=O)c1ccncc1 | inconclusive: 17.8 µM [inhibitor, single point] | – |
| O=C(NNC1=NS(=O)(=O)c2ccccc21)c1ccc([N+](=O)[O-])cc1 | active: 7.94 µM | – |
| CCc1ccc(C(C)NC(=S)NCc2ccc(F)cc2)cc1 (configuration not stated) | inconclusive: 35.5 µM [inhibitor, single point] | – |
| COc1ccc(OC)c(C2C3=C(CCCC3=O)NC3=C2C(=O)CCC3)c1 | inconclusive: 3.66 µM [inhibitor, single point] | – |

An excerpt from above in order of length of the SMILES, low to high.

| Structure (SMILES) | Potency | activity change, negative = inhibition |
| --- | --- | --- |
| CN1CCc2c(sc3c2C(=O)NC(c2ccccc2)N3)C1 (configuration not stated) | inconclusive: 35.5 µM [activator, single point] | – |
| OCCN1CCN(c2nc(-c3ccccc3O)nc3ccccc23)CC1 | inconclusive: 35.5 µM [inhibitor, single point] | – |
| CC(=O)c1c(N2CCN(Cc3ccccc3)CC2)nc(=S)n(Cc2ccccc2)c1C | inconclusive: 7.08 µM [inhibitor, full curve, poor fit] | – |
